Assay results taken from the supplement of paper PMC12819154, “High-throughput peptide-centric local stability assay extends protein–ligand identification to membrane proteins, tissues and bacteria” (Nature Structural & Molecular Biology, 2025).
This is one part of the list. Most values lie at the level of the controls, where differences are scatter.

By UniProt entry, the sequences of proteins in these tests, tags left out. Where a name states a change or a piece, a line headed by the entry shows the natural chain unless it says otherwise.
UniProt Q8BKJ9: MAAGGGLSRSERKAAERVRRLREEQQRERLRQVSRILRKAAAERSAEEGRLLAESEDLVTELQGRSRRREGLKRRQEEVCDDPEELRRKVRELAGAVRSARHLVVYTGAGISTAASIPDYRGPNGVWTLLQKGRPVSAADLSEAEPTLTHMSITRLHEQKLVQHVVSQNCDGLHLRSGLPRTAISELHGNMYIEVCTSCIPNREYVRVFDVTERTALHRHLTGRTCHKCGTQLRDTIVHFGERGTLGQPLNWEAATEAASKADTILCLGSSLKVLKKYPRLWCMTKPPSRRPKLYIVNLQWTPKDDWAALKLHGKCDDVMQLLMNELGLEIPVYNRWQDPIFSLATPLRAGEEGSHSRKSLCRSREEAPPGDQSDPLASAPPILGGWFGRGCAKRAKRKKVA
UniProt Q8BUP8: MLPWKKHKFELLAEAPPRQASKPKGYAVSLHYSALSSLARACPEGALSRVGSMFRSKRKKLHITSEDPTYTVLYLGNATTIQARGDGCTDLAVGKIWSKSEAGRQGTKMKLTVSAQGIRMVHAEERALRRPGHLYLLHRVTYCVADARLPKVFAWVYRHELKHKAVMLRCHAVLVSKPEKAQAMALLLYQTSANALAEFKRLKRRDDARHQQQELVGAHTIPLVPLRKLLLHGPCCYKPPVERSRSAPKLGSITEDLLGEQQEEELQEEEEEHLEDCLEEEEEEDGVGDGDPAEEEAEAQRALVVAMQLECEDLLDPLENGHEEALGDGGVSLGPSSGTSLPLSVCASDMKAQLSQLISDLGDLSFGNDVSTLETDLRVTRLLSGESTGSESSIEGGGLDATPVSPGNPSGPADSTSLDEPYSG
UniProt Q8BJM7: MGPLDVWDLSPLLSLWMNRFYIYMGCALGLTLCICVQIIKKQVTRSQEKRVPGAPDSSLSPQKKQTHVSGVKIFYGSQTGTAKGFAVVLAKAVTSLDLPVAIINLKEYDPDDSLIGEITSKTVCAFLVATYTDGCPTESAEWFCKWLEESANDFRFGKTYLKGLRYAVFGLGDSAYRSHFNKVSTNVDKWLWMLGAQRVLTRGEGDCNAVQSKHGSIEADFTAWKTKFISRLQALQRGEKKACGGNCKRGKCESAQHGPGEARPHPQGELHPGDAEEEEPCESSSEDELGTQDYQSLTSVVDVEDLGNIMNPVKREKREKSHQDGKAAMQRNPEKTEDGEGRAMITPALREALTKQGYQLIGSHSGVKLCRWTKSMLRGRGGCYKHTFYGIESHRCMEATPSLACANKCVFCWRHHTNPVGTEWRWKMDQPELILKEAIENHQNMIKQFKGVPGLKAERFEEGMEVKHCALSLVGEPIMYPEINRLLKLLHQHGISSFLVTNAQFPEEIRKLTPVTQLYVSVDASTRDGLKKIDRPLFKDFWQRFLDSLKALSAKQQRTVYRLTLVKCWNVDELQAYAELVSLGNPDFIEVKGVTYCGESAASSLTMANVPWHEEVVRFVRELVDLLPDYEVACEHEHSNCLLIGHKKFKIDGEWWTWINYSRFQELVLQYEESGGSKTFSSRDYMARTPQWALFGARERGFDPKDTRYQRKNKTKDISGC
UniProt Q8BSF4: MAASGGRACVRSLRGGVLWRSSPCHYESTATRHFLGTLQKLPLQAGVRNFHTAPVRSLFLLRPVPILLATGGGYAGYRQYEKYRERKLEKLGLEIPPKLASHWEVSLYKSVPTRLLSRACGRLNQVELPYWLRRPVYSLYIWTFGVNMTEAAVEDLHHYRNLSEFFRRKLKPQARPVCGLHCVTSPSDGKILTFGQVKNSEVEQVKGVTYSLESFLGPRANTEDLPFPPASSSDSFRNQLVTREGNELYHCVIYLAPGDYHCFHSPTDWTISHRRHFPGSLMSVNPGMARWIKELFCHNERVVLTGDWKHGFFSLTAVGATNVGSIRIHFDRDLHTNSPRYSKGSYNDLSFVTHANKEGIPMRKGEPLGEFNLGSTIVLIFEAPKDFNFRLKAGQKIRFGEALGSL
UniProt Q8BR37: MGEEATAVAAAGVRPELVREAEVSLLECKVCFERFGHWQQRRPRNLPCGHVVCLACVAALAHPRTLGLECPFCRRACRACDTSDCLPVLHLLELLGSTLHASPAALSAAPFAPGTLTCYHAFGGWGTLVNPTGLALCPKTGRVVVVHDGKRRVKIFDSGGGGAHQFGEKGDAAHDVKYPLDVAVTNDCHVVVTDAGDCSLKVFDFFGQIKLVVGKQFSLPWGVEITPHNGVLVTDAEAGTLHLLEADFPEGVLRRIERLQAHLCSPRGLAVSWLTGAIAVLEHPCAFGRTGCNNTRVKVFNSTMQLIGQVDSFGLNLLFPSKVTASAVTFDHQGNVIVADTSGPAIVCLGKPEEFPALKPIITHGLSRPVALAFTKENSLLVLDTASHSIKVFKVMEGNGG
UniProt Q8BLR9: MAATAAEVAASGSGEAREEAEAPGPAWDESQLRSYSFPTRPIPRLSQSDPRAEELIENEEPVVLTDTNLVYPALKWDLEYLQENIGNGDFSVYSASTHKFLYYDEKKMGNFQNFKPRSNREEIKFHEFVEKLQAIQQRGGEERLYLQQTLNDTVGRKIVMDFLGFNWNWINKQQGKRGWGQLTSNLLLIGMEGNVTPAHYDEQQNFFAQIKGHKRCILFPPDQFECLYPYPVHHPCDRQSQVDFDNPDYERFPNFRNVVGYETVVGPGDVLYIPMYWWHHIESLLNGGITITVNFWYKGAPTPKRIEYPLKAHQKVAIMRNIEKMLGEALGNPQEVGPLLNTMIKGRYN
UniProt Q8BP27: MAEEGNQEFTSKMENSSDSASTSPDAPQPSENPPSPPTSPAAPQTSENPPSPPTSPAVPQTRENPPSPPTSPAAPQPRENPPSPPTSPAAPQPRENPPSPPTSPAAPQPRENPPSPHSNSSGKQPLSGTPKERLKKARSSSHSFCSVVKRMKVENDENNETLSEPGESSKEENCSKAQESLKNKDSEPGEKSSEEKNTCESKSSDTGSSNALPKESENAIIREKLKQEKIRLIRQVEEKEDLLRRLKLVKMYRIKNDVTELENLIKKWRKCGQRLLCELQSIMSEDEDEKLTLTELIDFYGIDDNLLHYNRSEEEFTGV
UniProt Q8BSD5: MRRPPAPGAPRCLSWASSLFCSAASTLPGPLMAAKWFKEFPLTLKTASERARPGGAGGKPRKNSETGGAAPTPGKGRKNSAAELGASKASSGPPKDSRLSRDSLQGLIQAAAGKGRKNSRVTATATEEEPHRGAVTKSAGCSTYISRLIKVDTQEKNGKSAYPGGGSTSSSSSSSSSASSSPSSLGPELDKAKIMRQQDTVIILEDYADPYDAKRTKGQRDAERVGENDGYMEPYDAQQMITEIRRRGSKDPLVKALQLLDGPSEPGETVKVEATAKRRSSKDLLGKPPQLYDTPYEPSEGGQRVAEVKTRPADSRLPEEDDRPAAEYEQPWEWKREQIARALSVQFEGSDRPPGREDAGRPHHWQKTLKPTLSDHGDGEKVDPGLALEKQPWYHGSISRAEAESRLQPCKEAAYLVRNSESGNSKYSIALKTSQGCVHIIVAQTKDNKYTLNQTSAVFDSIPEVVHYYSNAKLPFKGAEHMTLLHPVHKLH
UniProt Q8BUR3: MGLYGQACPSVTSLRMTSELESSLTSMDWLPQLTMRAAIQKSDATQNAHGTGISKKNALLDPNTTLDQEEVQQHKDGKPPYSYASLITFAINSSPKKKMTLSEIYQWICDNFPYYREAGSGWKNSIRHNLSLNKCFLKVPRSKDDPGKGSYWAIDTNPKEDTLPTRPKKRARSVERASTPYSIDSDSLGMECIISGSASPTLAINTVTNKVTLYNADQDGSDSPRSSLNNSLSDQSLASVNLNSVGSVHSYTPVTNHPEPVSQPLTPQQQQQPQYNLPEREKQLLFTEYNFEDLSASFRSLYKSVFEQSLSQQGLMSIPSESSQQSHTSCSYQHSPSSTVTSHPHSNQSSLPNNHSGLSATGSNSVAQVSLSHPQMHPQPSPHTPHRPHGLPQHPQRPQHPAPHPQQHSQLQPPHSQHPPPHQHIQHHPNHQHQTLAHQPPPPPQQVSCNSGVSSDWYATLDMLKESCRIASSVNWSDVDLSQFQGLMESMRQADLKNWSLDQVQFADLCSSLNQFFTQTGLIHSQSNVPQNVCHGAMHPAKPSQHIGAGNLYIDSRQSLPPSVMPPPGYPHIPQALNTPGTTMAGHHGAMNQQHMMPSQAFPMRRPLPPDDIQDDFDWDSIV
UniProt Q8BSI6: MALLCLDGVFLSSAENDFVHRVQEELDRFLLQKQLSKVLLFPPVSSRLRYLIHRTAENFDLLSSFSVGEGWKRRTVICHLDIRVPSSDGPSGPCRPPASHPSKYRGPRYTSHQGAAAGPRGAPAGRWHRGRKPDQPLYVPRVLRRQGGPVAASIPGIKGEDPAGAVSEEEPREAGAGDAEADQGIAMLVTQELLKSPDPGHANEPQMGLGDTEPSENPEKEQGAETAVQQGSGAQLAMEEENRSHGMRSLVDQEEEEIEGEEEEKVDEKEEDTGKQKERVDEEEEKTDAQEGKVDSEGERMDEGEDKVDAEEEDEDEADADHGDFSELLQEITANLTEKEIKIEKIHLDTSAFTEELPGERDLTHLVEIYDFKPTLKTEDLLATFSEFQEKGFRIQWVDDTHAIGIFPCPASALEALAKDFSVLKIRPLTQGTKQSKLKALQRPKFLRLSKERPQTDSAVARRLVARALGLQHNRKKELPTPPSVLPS
UniProt Q8BI84: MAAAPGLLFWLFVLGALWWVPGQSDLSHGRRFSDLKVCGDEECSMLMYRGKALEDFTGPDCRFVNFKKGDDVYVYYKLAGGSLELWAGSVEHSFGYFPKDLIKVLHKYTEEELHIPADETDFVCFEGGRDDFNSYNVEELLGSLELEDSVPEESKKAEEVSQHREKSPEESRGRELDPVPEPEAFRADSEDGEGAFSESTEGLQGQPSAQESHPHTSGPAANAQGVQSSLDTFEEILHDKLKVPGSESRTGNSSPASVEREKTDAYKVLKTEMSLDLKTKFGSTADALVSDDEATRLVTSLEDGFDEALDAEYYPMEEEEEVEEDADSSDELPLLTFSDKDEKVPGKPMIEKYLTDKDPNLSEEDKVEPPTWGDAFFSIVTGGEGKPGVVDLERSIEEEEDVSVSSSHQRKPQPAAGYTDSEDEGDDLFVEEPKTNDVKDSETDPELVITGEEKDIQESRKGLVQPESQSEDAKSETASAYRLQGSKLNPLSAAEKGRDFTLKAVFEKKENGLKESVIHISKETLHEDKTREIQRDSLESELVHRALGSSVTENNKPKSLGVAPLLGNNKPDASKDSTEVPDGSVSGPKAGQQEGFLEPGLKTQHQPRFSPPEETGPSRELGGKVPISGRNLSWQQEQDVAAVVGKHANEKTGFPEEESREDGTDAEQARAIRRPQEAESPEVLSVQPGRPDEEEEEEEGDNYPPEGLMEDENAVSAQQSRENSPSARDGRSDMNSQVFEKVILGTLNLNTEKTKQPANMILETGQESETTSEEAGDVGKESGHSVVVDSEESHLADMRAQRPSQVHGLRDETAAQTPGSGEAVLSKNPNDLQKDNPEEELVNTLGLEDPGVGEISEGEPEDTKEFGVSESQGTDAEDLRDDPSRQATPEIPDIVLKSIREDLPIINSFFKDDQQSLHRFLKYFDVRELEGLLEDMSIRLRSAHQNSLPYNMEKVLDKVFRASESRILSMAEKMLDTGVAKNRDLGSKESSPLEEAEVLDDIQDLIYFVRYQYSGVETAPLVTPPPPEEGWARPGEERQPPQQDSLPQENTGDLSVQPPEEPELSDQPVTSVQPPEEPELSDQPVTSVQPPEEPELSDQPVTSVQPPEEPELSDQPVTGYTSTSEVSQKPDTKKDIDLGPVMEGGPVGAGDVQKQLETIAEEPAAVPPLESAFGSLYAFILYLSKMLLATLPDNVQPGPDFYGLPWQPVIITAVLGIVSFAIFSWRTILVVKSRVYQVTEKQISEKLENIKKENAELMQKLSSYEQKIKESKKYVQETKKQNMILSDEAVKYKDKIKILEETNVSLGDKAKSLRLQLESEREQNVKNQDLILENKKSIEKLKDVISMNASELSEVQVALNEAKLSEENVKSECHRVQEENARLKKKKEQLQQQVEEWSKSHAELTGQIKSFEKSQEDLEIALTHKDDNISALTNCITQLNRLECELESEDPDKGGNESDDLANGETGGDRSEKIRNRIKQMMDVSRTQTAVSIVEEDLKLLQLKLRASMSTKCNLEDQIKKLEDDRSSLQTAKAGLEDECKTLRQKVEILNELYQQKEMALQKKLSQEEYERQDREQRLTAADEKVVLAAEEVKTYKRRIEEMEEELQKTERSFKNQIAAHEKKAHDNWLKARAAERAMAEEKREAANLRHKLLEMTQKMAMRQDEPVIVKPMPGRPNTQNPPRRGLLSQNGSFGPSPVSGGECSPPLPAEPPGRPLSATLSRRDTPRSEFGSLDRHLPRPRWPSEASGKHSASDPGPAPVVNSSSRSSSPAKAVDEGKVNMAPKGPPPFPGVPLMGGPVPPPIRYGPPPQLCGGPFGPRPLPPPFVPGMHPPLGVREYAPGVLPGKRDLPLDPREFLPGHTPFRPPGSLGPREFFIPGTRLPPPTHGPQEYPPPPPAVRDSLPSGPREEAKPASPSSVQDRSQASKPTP

The targets below were run with CN[C@@H]1C[C@H]2O[C@@](C)([C@@H]1OC)n1c3ccccc3c3c4c(c5c6ccccc6n2c5c31)C(=O)NC4 [staurosporine] (assay: log2 fold change of tryptic peptide abundance, ligand vs vehicle (limited proteolysis) (log2 ratio); higher = more trypsin-susceptible (destabilized)). Conditions: ligand concentration: 20 uM; sample: mouse liver crude lysate; replicate design: treated separately.

Target	log2 fold change
UniProt Q8BKJ9 (peptide sequence: GPNGVWTLLQK, peptide start residue: 122)	0.288
UniProt Q8BRF7 (peptide sequence: KALTDAGCNLSPLQYIK, peptide start residue: 475)	0.309
UniProt Q8BQP8 (peptide sequence: SSSGLGEFNAR, peptide start residue: 524)	-0.644
UniProt Q8BVD5 (peptide sequence: NSEPLGATIK, peptide start residue: 145)	-0.22
UniProt Q8BUP8 (peptide sequence: HQQQELVGAHTIPLVPLRK, peptide start residue: 210)	0.3
UniProt Q8BRG6 (peptide sequence: FADTHSLK, peptide start residue: 174)	0.245
UniProt Q8BJM7 (peptide sequence: IFYGSQTGTAK, peptide start residue: 73)	0.506
UniProt Q8BN21 (peptide sequence: YKLPVPLPEGK, peptide start residue: 9)	-0.27
UniProt Q8BSF4 (peptide sequence: NLSEFFR, peptide start residue: 161)	0.278
UniProt Q8BHY2 (peptide sequence: LLEAVLTSR, peptide start residue: 17)	-0.066
UniProt Q8BTZ4 (peptide sequence: YAALNLAALHCR, peptide start residue: 287)	0.274
UniProt Q8BTM8 (peptide sequence: FNGTHIPGSPFK, peptide start residue: 2406)	0.482
UniProt Q8BRK9 (peptide sequence: GLGQGLK, peptide start residue: 971)	0.22
UniProt Q8BR37 (peptide sequence: FGHWQQR, peptide start residue: 35)	-0.152
UniProt Q8BTG3 (peptide sequence: INAVELAEGSLEKR, peptide start residue: 90)	-0.0376
UniProt Q8BLR9 (peptide sequence: MGNFQNFKPR, peptide start residue: 108)	0.326

Shown with bars between the fields: part of the list above
Target | log2 fold change
UniProt Q8BKJ9 (peptide sequence: GPNGVWTLLQK, peptide start residue: 122) | 0.288
UniProt Q8BRF7 (peptide sequence: KALTDAGCNLSPLQYIK, peptide start residue: 475) | 0.309
UniProt Q8BRG6 (peptide sequence: FADTHSLK, peptide start residue: 174) | 0.245
UniProt Q8BN21 (peptide sequence: YKLPVPLPEGK, peptide start residue: 9) | -0.27
UniProt Q8BHY2 (peptide sequence: LLEAVLTSR, peptide start residue: 17) | -0.066
UniProt Q8BTZ4 (peptide sequence: YAALNLAALHCR, peptide start residue: 287) | 0.274
UniProt Q8BRK9 (peptide sequence: GLGQGLK, peptide start residue: 971) | 0.22
UniProt Q8BR37 (peptide sequence: FGHWQQR, peptide start residue: 35) | -0.152

Later entries

Target	log2 fold change
UniProt Q8BUB4 (peptide sequence: GWLLTSGTDK, peptide start residue: 379)	0.177
UniProt Q8BP27 (peptide sequence: SSSHSFCSVVK, peptide start residue: 139)	0.268
UniProt Q8BKT8 (peptide sequence: ADPSAQSEGEK, peptide start residue: 202)	-0.323
UniProt Q8BNA6 (peptide sequence: TGLITTTSR, peptide start residue: 1201)	-0.0431
UniProt Q8BJG4 (peptide sequence: ELEPLREMTER, peptide start residue: 203)	-0.197
UniProt Q8BSD5 (peptide sequence: EDAGRPHHWQK, peptide start residue: 357)	-0.831
UniProt Q8BTY2 (peptide sequence: FEKEELESHR, peptide start residue: 37)	-0.193
UniProt Q8BUV3 (peptide sequence: GKTLIINLPGSKK, peptide start residue: 137)	-1.04
UniProt Q8BSQ9 (peptide sequence: LWTMPISSVR, peptide start residue: 1075)	0.25
UniProt Q8BUR3 (peptide sequence: SDATQNAHGTGISKK, peptide start residue: 42)	-0.175
UniProt Q8BMC4 (peptide sequence: NQELIQDPFGHHVAR, peptide start residue: 588)	0.337
UniProt Q8BSI6 (peptide sequence: IRPLTQGTK, peptide start residue: 426)	-0.605
UniProt Q8BJL1 (peptide sequence: ATDKISEPR, peptide start residue: 146)	-0.35
UniProt Q8BVE3 (peptide sequence: QDPFTVHMAAR, peptide start residue: 133)	0.311
UniProt Q8BI84 (peptide sequence: TGNSSPASVER, peptide start residue: 250)	-0.516
